From patent publication US20210301293

The chains behind the UniProt entries cited, without tags or fusion partners. Residues count along the entry.
UniProt P09382, 2-135: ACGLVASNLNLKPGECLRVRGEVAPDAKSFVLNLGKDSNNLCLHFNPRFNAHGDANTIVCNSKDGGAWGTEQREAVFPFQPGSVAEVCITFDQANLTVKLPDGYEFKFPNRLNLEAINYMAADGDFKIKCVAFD

Key:
[1] = target: human galectin-1 (hGal1), alkylated (Homo sapiens) (UniProt P09382); test: binding assay; settings: thermal shift assay; Tm change not significant; also no hemagglutination effect (FIG. 15); purified recombinant protein; single-stranded DNA
[2] = target: human galectin-1 (hGal1), alkylated (Homo sapiens) (UniProt P09382); test: inhibition of the protein; settings: no effect on hemagglutination by alkylated Gal1; purified recombinant protein; single-stranded DNA; dose not given here
[3] = target: human galectin-1 (hGal1), native (Homo sapiens) (UniProt P09382); test: inhibition of the protein; settings: purified recombinant protein, single-stranded DNA
[4] = hemagglutination inhibition, stated similar to SEQ ID NO 4 and 9, dose not given here

CTGACACAGCAGGTTGGTGCCAACTAACACCATAAGAATACCCCGCTCCAAATAAGCCCACACGTAAACCCGAGTCGAGCAATCTCGAAAT [SEQ ID NO. 4 (AptaGal1)]
binding result [1]: no binding

AGCTGACACAGCAGGTTGGTGCCCAAAAGAGCCAATCCACGACGACACCCCAAAAACCATATCACGAATACCCGAGTCGAGCAATCTCGAAAT [SEQ ID NO. 9]
functional effect of the aptamer [2]: not active | functional effect of the aptamer ([3]; hemagglutination inhibited from 10 uM aptamer, 5 uM hGal1): active

AGCTGACACAGCAGGTTGGTGCCAACAAGAAAAGAAACCGTTACAGAAGACACTACAGAATAAGTGAAAAGCCGAGTCGAGCAATCTCGAAAT [SEQ ID NO. 10]
functional effect of the aptamer [3, 4]: active

AGCTGACACAGCAGGTTGGTGCGCCCAATACAGGCGCAGTATCTGTCCGTGGGCCGGGTAAAAGTTACGGACCGAGTCGAGCAATCTCGAAAT [SEQ ID NO. 12]
functional effect of the aptamer [3, 4]: active

For some assays here: Negatives hold for the conditions tested.
